What all share (assay): co-IP
Experiment [1] has as its target T1, IBTK, endogenous (human (endogenous in 293T)) (UniProt Q9P2D0).
T1 sequence: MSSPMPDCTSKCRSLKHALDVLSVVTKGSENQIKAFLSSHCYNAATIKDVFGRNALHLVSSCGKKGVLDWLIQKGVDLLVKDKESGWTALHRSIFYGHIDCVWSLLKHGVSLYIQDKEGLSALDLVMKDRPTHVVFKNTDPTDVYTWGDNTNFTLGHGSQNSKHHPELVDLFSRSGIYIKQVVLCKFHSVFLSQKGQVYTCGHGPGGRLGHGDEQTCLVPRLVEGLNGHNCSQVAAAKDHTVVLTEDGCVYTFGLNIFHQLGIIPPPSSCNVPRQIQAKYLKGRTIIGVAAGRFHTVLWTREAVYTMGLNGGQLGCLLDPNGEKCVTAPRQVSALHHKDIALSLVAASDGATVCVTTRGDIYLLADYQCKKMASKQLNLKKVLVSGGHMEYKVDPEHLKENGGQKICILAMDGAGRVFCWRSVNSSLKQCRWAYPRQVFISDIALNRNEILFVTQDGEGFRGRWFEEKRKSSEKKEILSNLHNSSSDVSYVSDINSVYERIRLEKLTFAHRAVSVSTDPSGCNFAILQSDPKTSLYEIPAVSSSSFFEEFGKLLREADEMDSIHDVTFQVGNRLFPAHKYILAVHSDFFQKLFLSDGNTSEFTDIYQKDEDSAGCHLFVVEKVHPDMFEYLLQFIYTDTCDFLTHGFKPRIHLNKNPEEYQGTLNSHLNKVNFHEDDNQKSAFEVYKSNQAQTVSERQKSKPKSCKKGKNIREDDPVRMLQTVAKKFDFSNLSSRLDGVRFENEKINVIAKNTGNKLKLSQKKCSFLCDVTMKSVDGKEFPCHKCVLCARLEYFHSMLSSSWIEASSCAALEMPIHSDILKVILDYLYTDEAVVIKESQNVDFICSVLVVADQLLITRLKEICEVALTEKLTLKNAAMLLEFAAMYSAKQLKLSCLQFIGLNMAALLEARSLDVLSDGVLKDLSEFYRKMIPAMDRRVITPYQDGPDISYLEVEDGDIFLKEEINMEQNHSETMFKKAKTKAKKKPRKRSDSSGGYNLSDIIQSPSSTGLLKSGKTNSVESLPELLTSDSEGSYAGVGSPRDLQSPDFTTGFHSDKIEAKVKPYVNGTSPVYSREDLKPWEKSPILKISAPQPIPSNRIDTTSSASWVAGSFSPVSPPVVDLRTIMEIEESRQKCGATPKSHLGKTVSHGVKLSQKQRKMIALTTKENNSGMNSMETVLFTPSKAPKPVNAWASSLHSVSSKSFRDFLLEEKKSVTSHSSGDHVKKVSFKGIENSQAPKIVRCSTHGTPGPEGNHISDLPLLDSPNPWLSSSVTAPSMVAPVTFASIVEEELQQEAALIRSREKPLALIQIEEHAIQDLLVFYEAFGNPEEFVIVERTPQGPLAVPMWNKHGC

Protein sequences, listed by entry. Tags and fused reporters are not part of them.
UniProt P23443: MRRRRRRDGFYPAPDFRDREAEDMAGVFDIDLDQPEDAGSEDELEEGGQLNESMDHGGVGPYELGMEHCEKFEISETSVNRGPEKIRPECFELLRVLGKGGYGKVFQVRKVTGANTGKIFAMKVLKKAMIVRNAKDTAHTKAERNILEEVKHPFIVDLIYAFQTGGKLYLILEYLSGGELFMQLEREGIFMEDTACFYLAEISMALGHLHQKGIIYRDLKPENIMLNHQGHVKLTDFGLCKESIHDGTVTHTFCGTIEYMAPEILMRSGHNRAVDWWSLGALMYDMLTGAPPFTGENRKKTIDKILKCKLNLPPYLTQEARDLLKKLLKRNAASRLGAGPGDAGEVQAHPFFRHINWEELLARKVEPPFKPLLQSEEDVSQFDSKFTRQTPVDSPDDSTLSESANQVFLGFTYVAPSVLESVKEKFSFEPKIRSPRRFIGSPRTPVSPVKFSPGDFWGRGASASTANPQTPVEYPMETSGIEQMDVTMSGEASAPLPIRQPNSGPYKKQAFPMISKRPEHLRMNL
UniProt P05198: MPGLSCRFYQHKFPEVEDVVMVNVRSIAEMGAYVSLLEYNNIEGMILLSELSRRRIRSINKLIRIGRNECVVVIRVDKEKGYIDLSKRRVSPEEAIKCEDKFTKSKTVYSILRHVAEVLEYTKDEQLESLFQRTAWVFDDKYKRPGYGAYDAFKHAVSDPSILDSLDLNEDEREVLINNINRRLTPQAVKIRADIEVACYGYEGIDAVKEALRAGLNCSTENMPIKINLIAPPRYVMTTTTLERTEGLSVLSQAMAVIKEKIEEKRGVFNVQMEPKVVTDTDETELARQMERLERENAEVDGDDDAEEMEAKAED
UniProt P60842: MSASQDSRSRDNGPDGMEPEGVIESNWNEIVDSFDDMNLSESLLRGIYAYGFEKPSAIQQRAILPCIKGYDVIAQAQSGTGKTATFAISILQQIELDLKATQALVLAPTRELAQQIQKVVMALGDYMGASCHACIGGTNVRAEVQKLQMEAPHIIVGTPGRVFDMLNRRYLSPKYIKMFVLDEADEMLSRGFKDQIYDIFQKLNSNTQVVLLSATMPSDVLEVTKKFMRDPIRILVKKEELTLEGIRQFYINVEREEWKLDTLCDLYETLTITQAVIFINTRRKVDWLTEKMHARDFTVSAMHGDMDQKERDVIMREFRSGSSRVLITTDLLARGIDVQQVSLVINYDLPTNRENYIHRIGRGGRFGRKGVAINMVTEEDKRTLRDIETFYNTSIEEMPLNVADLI
UniProt Q14240: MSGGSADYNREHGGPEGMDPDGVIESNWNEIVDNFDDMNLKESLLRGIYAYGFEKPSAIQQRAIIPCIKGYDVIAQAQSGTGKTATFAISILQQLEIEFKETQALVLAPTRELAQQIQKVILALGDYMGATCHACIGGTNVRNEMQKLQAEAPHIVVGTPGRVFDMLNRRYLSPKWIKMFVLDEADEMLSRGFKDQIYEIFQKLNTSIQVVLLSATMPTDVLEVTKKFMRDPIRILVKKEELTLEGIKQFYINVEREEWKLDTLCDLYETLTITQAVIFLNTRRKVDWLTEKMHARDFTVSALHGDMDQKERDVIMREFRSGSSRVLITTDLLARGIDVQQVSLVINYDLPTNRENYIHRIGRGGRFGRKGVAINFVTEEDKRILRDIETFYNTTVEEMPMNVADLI
UniProt P38919: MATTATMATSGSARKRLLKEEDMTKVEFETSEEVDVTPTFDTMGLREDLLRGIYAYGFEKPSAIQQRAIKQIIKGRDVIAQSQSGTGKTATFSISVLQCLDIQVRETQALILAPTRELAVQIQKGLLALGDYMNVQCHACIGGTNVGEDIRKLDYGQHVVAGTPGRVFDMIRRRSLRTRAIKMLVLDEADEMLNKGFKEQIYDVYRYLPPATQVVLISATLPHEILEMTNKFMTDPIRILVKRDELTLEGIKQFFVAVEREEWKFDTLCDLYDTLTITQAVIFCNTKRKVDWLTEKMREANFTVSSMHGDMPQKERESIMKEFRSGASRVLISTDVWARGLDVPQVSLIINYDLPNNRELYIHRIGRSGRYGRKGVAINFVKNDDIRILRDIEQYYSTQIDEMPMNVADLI
UniProt P06730: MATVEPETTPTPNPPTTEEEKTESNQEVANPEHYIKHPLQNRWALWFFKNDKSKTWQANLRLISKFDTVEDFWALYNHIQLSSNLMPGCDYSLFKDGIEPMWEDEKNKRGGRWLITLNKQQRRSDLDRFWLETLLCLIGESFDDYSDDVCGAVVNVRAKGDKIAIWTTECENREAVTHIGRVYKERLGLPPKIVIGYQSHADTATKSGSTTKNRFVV

The target in experiment [2] is T2, IBTK, ectopically expressed (UniProt Q9P2D0).
T2 sequence: T1 sequence

Another experiment has as its target T3, FLAG-BirA*-IBTK (UniProt Q9P2D0).
T3 sequence: T1 sequence

This note sets out measurements from doi:10.1101/2023.09.27.559872.

No constants are given. Whether binding was seen depends on the method and setting. In cells and extracts the contact can be indirect. Some results given as binding are weak or reduced against the parent protein; the word gives no strength. For some of these results: Where a sequence is shown, tags or fusion partners need not be part of it.

Turning to “S6K1, endogenous (from UniProt P23443 1-525) (enzyme)”, the binding result in experiment [1] is “binds”.
On to “S6K1, in transfected 293T cells (from UniProt P23443 1-525) (enzyme)”, for which the binding entry in experiment [2] is listed as “binds”.
In the case of “eIF2α, endogenous (from UniProt P05198 1-315)”, in the experiment with FLAG-BirA*-IBTK, the binding result is listed as “binds”.
On to “eIF4A1, ectopically expressed (from UniProt P60842 1-406)”, for which the binding result in experiment [2] is “binds”.
Turning to “eIF4A1, endogenous (from UniProt P60842 1-406)”, the binding entry (in experiment [1]; with FLAG-BirA*-IBTK) was “binds” in each case.
For the substance “eIF4A2, ectopically expressed (from UniProt Q14240 1-407)”, the binding result in experiment [2] is listed as “binds”.
Consider “eIF4A2, endogenous (from UniProt Q14240 1-407)”, for which the binding result (in experiment [1]; with FLAG-BirA*-IBTK) was “binds” in each case.
For “eIF4A3, ectopically expressed (from UniProt P38919 1-411)”, the binding entry in experiment [2] is “binds”.
On to “eIF4A3, endogenous (from UniProt P38919 1-411)”, for which the binding entry (in experiment [1]; in the experiment with FLAG-BirA*-IBTK) was “binds” in each case.
As for “eIF4E, endogenous (from UniProt P06730 1-217)”, the binding result with FLAG-BirA*-IBTK was “no binding”.
